## Results of single-concentration screens

From ChEMBL document CHEMBL3988442, “University of Dundee, Small-Polar-MMV Screening Library” (2021).

A: 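Growth of Mycobacterium tuberculosis over 3 days (7H9 medium with glucose and tyloxapol); the read-out is not stated. Compounds at 50 µM. The record gives no direction; compounds that gave an IC50 in retests scored well above the rest, so higher reads as more growth inhibition. Of about 69,000 compounds tested this way, about 760 (1.1%) reached 50% or more in at least one test.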
B: 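Phenotypic screen: M. tuberculosis growth, cholesterol and DPPC medium, 4 days; the read-out is not stated. Compounds at 50 µM. Direction is inferred from retests: higher values go with more growth inhibition. Size under these conditions: about 69,000 compounds, about 370 of them at 50% or above in at least one test.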

Each number is a percent effect as filed.
The record does not define 0% and 100%; most values in the screen are far below 50% and negative numbers occur (in some assays of this library far below -100).
The compounds are a random part of those screened.
Two or more numbers in one place are separate tests of the same structure; such repeats can differ widely.

Compound	A	B
[H][C@]12CC[C@]([H])(CN(Cc3cccnc3)C1)N(C(=O)CSCCC)C2	-55.98%	-15.62%
[H][C@@]12CS(=O)(=O)C[C@]1([H])N(C(=O)c1cccc3cccnc13)CCN2CCC	-56.23%	-65.95%
Cc1cccc(C)c1Nc1noc2c1CN(C(=O)c1ccnn1C)CC2	6.726%	-18.95% and -11.39%
CC(C)Cn1cc(NC(=O)N2CCOC(c3ccccc3)C2)cn1 (centres undefined)	4.244% and 18.95%	5.399%
COc1ccc(C)cc1S(=O)(=O)NCCC(O)c1ccccc1 (centres undefined)	-3.037%	-8.435%
CCOc1cc(C)nc(N2CCN(C(=O)c3cc(C)on3)CC2)n1	-5.708% and 3.513%	21.08%
Cc1ccccc1N1CCCN(C(=O)CCCn2ccnc2C)CC1	15.95% and 0.7317%	15.61%
FC(F)Sc1ccc(NCc2nnc(C3CC3)o2)cc1	54.86%	51.93%
CN1C[C@@H](C(=O)N2CCCOCC2)[C@@]2(CCc3ccccc3C(=O)N2)C1	27.81%	16.99%
Cn1cnnc1C1CCCN(C(=O)NCCc2ccccc2F)C1 (centres undefined)	1.217%	-14.99%
c1cnc(N2CCC3(COCc4cnc(N5CCOCC5)nc43)C2)nc1 (centres undefined)	12.54%	-15.13%
CN1CCOC(C(=O)Nc2nnc(Cc3ccc(F)cc3)[nH]2)C1 (centres undefined)	28.94% and 0.3207%	3.204%
Cc1csc2c(=O)n(C(C)Cc3cccnc3)cnc12 (centres undefined)	18.79%	-4.997%
CCc1ccsc1C(=O)N1CCN(C(=O)c2ccc(C)o2)CC1	22.63%	34.91%
[H][C@@]12CN(S(C)(=O)=O)C[C@]1(C(=O)NC)CCC21CCN(C(C)=O)CC1	16.74%	2.224%
O=C1CC(c2ccncc2)c2c(sc3c2CCCC3)N1 (centres undefined)	38.5% and 9.407%	19.48%
Cc1ccccc1OCn1ccc(C(=O)NCCN2CCOCC2)n1	27.88%	18.86%
O=C(NCc1nc(C2CC2)no1)N1CCOC(c2cccc(F)c2)C1 (centres undefined)	3.982% and 6.769%	20.08%
Cc1cc(CN2CCN(c3ccnc(-c4ccccc4)n3)CC2)no1	1.363%	5.172%
NCc1cnc(Nc2ccccc2)nc1	-5.499% and -36.23%	-48.56%
COc1ccc(NC2CCc3c2[nH]c(=O)n(C2CCCCC2)c3=O)cc1 (centres undefined)	15.53%	8.44%
CC(C)C(NC(=O)N1CCS(=O)(=O)CC1)c1ccccc1Cl (centres undefined)	-3.031% and 25.5%	26.45%
[H][C@@]12CCN(C3CCC3)[C@]1([H])CC[C@@H](c1nnc(C)o1)O2	9.276%	-11.97%
CC(=O)c1cccc(NC(=O)NCCCc2nc(C(C)C)no2)c1	-6.117%	-0.4796%
CCOc1ccccc1-n1c(C2CC(=O)N(C)C2)n[nH]c1=O (centres undefined)	-3.148%	-16.85%
Cc1ccccc1OC(C(=O)N1CCC2(CC1)CN(C)C(=O)O2)C(C)C (centres undefined)	-14.35%	-0.08875%
O=C(O)C(F)(F)F.[H][C@@]12CN(CC3CC3)C[C@]1([H])[C@@H](OC)CCN2C(=O)c1cc(C)nn1CC	-44.41% and -6.954%	-35.72% and -6.876%
Cc1cc(S(=O)(=O)NCC(O)c2sccc2C)ccc1F (centres undefined)	15.31% and 5.976%	1.297%
Cc1ccc(CN2CC[C@@H](N(C)C(C)C)[C@@H]2Cc2ccccc2)o1	-0.8575% and 22.33%	27.01%
Cc1[nH]c2c(F)cccc2c1CC(=O)NCc1csc(N(C)C)n1	-27.5%	-16.35% and -11.55%
CCc1ccc2c(c1)C(CCNC(=O)CSC(F)(F)F)C(=O)N2 (centres undefined)	12.53%	6.13%
O=C(O)C(F)(F)F.O=C(O)C(F)(F)F.[H][C@@]12CCCO[C@]1([H])[C@@H](Oc1ccccn1)CN2c1nnc(C)s1	-6.722% and -30.16%	-35.24%
CC1NC(=O)COC12CCN(C(=O)Cc1ccsc1)CC2 (centres undefined)	-7.533% and -1.804%	10.69%
CC(C)C(Sc1nccn1C1CC1)C(=O)NCc1cccnc1 (centres undefined)	13.63%	-20.91%
O=C(O)C(F)(F)F.[H][C@]12CCN(C(=O)c3ccnnc3)CC[C@]1([H])N(CCOC)CCO2	-7.535% and 10.34%	-4.703%
c1cc(CNCCC2CCCO2)ccn1 (centres undefined)	-63.93%	-29.88%
O=C1C(NCc2cccc(O)c2)CCN1Cc1ccccc1 (centres undefined)	4.594%	7.609%
CCCS(=O)(=O)N1Cc2nccn2CC(CN(C)C)C1.O=C(O)C(F)(F)F (centres undefined)	-30.2% and 3.337%	0.34% and -13.86%
CC(C)(C)C(=O)NCCc1cc(N2CCOCC2)nc(NC2CC2)n1	11.17%	22.18% and -0.7925%
Cn1nnc2c1CCN(Cc1ccccc1)C2COCC1CC1 (centres undefined)	28.45%	-2.953%
Cc1ccc(-c2cn3c(n2)CO[C@@H](CNCc2nccs2)C3)cc1	11.62% and -16.54%	-20.72%
CCOc1cccc(C(=O)N2CCC(c3n[nH]c(C4CC4)n3)CC2)c1	8.578%	-10.85%
CS(=O)(=O)c1ccc(NC(=O)CSc2ccc3c(c2)CCC3)cn1	0.3597% and -14.24%	-10.08%
CCc1nsc(N2CCn3c(nnc3C(F)(F)F)C2)n1	-44.17% and 5.505%	-2.915%
COCCN1CC2(CCCN(c3ncc(Cl)cc3F)C2)CCC1=O (centres undefined)	-31.44%	-16.12%
CCN1CCC(N2CCN(c3cc(-c4nc(C)no4)ccn3)CC2)CC1	-49.53%	-27.53%
CC(=O)Nn1ccc2c(nnc3c(-c4ccc(F)cc4)cnn32)c1=O	-0.189%	-2.398%
CCn1cc(NC(=O)NCCN2CCCc3ccccc32)cn1	-2.725%	-14.25%
Cl.[H][C@@]12CCN(Cc3ccsc3)C[C@]1([H])[C@@H](c1cccc(OC)c1)CN2C(C)=O	24.35%	14.29%
O=C(O)C(F)(F)F.c1ccc(CN2CCCn3nnc(Cn4cccc4)c3C2)nc1	-6.23% and -8.149%	20.62%
Cc1cnn(Cc2cc(F)ccc2F)c1NC(=O)C1COCCO1 (centres undefined)	23.23%	5.075%
NC(=O)c1cnc2n1CCN(C(=O)c1ccc(-c3cc[nH]n3)cc1)C2	33.7% and 4.868%	11.74%
Cc1ccc(-n2nc(C)cc2N)nn1	7.394%	-13.84%
CC(O)c1cccc(N2CCC3(CCC(=O)N(C4CCCC4)C3)CC2)n1 (centres undefined)	28.86%	2.848%
O=C(Cn1cc(C(=O)O)ccc1=O)NCc1ccc(F)c(Cl)c1	15.37%	4.852%
Cc1nn(C)c(C)c1CNC(=O)c1cc(NC(=O)C2CC2)n(C)n1	-5.911%	-7.023%
Cc1cc2c(N3CCC(N(C)Cc4cnn(C)c4)CC3)ncnc2s1	-24.56%	7.15%
[H][C@@]12CS(=O)(=O)C[C@]1([H])N(Cc1ccc(F)c(C)c1)CCN2C(=O)C(C)C	-5.174% and 8.155%	-4.971%
CC(C(=O)NCc1ccnc(N(C)C)c1)n1cccn1 (centres undefined)	8.065%	9.637%
CNc1cc(C2CN(Cc3scnc3C)CCO2)nc(C)n1 (centres undefined)	-42.19%	-18.69%
O=C(NCCc1ccncc1)c1cccnc1OCC(F)(F)F	-19.91%	-15.25%
Cc1ccc2nc(CN3CCCCC3CCN3CCOCC3)cn2c1 (centres undefined)	6.999%	-6.343%
CC(C)c1nsc(N2CCc3sccc3C2)n1	21.16% and 43.19%	0.8975%
CCc1noc(CC)c1CNC(=O)Nc1cccc(C(=O)N(C)C)c1	25.12%	15.7%
CC(C)N(C)CC(=O)Nc1nccn1Cc1ccccc1Cl	-26.51%	-1.256%
CC(C)CS(=O)(=O)N1CCC2(CC1)CCn1c(-c3cnn(C)c3)cnc12	-21.68%	-18.43%
CC(C)(C)OC(=O)NC(C)(C)c1noc(CSc2nncs2)n1	-31.5%	-34.68%
Cc1ccnn1CC(=O)N(C)Cc1ccc(-n2cccn2)cc1	-2.745%	2.471%
COCC(C)NC(=O)c1nnn(-c2ccc(F)cc2)n1 (centres undefined)	23.42%	-0.7703%
O=C(Nc1ccc(Cl)cn1)c1cncc(C2CCNCC2)n1	20.31%	18.4%
CCn1nc(C)c(CCNC(=O)C2CCCN(C3CCCC3)C2)c1C (centres undefined)	-33.89%	-32.39%
CC(C)(C)c1noc(CCC(=O)NCC2CCS(=O)(=O)C2)n1 (centres undefined)	7.94%	12.4%
CNC(=O)c1cc2c(nc1NCC(C)C)CCN(S(=O)(=O)C1CC1)CC2	9.564%	4.826%
CC(C)CN(Cc1ccc(-n2cncn2)cc1)Cc1ccccn1	-1.74% and -14.46%	9.288%
N#Cc1cc(S(N)(=O)=O)ccc1N1CCc2c(Cl)cccc2C1	-3.483%	-0.138%
Cc1nc(CNC(C(=O)N2CCOCC2)C(C)C)oc1C (centres undefined)	31.91%	-1.48%
O=C(c1ccc(-n2cccn2)nc1)N1CCC(Nc2cccnn2)CC1	-20.51%	-20.88%
O=C(O)C(F)(F)F.O=C(O)C(F)(F)F.[H][C@@]12COC[C@]1(C(=O)NCc1ccccn1)CN(Cc1ccccc1F)C2	24.14%	-0.8983%

Some entries from above, unchanged:

{"compound": "CC(=O)Nn1ccc2c(nnc3c(-c4ccc(F)cc4)cnn32)c1=O", "A": -0.189, "B": -2.398}
{"compound": "CC(C)(C)OC(=O)NC(C)(C)c1noc(CSc2nncs2)n1", "A": -31.5, "B": -34.68}
{"compound": "COc1ccc(C)cc1S(=O)(=O)NCCC(O)c1ccccc1", "stereo": "centres undefined", "A": -3.037, "B": -8.435}
{"compound": "COCC(C)NC(=O)c1nnn(-c2ccc(F)cc2)n1", "stereo": "centres undefined", "A": 23.42, "B": -0.7703}
{"compound": "c1cc(CNCCC2CCCO2)ccn1", "stereo": "centres undefined", "A": -63.93, "B": -29.88}
{"compound": "CN1CCOC(C(=O)Nc2nnc(Cc3ccc(F)cc3)[nH]2)C1", "stereo": "centres undefined", "A": "28.94 and 0.3207", "B": 3.204}
{"compound": "[H][C@@]12CCN(C3CCC3)[C@]1([H])CC[C@@H](c1nnc(C)o1)O2", "A": 9.276, "B": -11.97}
{"compound": "Cc1ccc(-n2nc(C)cc2N)nn1", "A": 7.394, "B": -13.84}